Measured values taken from the supplement of paper PMC10849652.
This is one part of the list.

By UniProt entry, the sequences of proteins in these tests, tags left out. Where a name states a change or a piece, a line headed by the entry shows the natural chain unless it says otherwise.
UniProt Q9Y297: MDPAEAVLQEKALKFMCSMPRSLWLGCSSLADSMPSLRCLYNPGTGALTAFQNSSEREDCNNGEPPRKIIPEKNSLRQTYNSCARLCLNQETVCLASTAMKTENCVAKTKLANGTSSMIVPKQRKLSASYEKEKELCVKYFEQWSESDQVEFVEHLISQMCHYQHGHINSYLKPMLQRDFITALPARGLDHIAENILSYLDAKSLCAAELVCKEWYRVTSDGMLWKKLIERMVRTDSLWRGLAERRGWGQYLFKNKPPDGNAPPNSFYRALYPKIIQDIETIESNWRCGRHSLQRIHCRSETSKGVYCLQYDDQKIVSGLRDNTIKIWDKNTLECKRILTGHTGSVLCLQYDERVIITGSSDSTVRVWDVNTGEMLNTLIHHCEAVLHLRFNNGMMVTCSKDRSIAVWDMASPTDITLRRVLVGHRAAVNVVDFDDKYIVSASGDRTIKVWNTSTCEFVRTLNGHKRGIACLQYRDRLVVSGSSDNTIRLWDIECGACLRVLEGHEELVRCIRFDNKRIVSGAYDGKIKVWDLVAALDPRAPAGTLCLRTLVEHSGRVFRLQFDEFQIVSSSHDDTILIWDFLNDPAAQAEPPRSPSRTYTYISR
UniProt Q13901: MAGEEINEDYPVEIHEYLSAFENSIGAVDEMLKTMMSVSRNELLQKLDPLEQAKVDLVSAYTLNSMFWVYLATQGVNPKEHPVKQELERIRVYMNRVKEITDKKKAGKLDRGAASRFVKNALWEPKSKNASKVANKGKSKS
UniProt Q6ZSJ8: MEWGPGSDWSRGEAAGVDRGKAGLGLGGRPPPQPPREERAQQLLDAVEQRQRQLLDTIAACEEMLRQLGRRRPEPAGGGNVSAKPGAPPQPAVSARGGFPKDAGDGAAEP
UniProt O75155: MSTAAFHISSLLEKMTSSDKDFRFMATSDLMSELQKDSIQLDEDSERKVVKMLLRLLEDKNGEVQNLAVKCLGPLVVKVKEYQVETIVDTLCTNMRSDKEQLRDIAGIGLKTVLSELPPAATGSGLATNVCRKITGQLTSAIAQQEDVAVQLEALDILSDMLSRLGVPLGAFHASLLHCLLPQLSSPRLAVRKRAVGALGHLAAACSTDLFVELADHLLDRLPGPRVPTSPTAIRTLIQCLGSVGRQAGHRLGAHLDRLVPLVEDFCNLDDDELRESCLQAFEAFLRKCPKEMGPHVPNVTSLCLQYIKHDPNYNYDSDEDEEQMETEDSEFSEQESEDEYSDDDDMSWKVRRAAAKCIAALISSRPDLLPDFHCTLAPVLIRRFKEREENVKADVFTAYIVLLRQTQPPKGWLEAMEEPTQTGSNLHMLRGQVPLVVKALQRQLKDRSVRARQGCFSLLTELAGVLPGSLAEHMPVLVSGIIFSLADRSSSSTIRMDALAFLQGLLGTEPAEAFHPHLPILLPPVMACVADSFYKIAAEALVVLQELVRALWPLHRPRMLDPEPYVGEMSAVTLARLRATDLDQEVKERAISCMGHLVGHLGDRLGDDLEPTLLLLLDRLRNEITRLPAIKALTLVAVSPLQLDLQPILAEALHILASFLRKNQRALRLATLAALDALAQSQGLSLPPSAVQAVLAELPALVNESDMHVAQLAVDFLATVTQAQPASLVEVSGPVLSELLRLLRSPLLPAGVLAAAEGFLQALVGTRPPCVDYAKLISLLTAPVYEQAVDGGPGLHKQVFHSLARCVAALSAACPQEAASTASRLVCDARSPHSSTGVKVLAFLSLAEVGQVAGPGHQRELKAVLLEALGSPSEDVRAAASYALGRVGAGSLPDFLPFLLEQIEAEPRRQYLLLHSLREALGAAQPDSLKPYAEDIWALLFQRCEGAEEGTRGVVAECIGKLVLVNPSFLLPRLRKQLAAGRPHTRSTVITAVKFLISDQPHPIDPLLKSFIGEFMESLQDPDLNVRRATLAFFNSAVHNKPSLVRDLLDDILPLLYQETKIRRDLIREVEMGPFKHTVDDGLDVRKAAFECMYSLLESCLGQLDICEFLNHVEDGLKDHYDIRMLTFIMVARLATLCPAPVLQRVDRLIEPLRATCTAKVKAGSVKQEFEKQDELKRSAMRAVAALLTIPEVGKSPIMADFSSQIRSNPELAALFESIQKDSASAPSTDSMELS
UniProt Q13555: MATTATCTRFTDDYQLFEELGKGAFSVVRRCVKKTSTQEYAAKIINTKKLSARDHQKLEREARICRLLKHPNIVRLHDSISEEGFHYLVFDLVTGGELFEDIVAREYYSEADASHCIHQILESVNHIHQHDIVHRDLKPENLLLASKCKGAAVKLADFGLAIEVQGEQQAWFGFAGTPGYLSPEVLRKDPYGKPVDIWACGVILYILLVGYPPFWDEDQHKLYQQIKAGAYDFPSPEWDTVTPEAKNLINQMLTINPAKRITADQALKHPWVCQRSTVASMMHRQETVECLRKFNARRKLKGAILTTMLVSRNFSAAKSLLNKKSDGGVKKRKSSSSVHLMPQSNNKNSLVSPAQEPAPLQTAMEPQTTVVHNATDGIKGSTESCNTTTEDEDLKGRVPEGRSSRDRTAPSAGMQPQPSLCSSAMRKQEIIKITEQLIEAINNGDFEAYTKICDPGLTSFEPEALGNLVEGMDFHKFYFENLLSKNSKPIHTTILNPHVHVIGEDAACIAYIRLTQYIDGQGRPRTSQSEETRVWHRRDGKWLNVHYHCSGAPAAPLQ
UniProt Q9BUW7: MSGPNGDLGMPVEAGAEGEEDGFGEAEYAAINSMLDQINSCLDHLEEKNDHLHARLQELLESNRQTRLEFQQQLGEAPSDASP
UniProt Q9BSJ5: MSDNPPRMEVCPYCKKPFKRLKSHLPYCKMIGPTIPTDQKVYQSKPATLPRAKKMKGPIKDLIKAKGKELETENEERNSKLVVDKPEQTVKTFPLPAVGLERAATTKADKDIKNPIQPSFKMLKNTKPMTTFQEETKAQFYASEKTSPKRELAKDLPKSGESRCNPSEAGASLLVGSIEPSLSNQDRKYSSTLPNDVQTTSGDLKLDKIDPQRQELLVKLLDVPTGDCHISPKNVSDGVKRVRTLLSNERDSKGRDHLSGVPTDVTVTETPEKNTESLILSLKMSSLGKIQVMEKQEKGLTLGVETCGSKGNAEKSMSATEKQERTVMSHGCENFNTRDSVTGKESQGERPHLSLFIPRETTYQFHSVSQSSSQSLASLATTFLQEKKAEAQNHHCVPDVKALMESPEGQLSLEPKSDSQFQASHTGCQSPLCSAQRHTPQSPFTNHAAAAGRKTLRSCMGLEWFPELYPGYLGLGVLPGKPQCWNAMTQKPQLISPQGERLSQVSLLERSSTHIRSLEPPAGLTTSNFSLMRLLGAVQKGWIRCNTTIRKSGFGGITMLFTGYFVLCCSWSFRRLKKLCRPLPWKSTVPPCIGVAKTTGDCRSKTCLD
UniProt Q5BKX5: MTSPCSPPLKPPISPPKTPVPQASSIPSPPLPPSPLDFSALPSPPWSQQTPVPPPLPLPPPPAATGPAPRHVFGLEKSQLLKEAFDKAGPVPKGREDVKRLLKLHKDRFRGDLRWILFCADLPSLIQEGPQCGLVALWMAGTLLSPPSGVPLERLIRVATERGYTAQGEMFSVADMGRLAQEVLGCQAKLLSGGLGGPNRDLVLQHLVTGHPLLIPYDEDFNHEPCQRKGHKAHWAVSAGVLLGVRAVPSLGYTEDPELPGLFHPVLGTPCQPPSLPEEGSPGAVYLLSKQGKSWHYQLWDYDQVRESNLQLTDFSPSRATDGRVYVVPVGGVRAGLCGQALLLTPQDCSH
UniProt Q9UFG5: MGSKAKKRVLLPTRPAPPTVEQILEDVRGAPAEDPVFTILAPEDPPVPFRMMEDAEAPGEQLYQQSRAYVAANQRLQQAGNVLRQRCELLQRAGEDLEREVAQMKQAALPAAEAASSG
UniProt Q8N3J3: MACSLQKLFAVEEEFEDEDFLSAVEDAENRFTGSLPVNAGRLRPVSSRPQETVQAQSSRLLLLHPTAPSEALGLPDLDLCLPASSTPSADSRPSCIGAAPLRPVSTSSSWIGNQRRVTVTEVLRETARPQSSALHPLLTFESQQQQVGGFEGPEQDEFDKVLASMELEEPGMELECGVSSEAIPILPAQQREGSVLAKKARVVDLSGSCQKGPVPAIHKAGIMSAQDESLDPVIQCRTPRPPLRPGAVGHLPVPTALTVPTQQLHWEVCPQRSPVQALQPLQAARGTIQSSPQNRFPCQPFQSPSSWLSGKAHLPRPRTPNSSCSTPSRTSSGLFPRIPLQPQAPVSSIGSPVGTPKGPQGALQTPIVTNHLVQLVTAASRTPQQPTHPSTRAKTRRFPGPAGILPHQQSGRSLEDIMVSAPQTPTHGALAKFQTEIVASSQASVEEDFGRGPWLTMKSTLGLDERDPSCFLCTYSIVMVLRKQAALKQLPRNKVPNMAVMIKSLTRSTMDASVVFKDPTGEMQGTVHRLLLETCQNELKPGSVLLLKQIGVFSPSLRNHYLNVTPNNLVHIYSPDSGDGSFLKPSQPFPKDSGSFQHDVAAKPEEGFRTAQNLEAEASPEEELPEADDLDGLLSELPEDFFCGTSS
UniProt P23280: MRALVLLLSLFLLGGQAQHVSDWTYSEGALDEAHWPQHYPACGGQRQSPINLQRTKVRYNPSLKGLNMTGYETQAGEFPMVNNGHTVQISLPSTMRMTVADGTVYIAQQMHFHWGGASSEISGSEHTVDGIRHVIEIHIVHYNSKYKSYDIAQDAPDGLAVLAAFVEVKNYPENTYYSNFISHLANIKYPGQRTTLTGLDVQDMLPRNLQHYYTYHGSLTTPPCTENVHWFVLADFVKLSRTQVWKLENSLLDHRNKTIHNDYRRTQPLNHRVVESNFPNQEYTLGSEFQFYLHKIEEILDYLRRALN
UniProt Q9H9S4: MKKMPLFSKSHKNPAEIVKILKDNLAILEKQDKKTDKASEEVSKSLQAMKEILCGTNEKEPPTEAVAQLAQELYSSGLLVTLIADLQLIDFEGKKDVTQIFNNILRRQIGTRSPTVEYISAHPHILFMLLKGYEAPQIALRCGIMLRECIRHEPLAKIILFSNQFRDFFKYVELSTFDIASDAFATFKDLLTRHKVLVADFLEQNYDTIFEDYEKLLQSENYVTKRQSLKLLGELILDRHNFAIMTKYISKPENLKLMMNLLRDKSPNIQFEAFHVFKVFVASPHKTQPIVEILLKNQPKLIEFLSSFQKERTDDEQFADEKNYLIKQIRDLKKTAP
UniProt Q08AD1: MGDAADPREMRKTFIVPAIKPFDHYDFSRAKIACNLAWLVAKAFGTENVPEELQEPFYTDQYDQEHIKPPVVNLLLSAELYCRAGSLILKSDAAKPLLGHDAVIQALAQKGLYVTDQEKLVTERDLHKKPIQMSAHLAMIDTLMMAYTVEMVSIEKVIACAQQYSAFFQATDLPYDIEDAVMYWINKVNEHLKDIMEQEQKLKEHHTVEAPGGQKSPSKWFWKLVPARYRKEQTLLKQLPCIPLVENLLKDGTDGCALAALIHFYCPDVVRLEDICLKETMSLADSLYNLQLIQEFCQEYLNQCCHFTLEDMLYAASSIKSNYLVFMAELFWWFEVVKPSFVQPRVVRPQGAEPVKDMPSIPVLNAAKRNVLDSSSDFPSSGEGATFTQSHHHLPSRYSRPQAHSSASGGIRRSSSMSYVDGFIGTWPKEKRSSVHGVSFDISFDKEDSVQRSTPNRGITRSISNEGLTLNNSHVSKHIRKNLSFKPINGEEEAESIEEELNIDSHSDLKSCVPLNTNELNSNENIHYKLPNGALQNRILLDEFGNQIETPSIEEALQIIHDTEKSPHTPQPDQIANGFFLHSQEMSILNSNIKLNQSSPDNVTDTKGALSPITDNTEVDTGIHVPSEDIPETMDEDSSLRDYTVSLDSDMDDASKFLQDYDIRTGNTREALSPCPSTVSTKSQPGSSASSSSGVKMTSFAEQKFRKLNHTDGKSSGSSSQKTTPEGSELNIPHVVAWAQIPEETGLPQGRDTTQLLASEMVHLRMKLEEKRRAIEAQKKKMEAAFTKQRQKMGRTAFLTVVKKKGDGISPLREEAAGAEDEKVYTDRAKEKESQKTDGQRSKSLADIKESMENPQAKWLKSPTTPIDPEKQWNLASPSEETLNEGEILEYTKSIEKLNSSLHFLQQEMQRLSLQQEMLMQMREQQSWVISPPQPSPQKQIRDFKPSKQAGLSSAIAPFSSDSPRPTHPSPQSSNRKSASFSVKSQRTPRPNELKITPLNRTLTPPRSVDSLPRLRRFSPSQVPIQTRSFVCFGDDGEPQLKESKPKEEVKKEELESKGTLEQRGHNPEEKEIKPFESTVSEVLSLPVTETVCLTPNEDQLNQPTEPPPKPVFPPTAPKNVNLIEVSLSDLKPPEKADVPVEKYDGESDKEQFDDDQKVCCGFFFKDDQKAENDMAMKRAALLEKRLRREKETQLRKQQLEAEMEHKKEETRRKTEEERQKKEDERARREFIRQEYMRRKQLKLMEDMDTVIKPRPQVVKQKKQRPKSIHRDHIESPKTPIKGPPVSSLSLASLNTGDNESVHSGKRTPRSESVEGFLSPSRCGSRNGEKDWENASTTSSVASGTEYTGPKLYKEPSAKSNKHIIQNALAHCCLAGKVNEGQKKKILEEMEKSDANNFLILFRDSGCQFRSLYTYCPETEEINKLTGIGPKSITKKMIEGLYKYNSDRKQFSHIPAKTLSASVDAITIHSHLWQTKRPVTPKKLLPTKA

Experiments:
Assay in all cases: log2 fold change, soluble protein after heating vs DMSO (PISA); higher = thermal stabilisation; K562 lysate, 10 uM; active = over 0.2 and 3.5 SD of the protein, either way, in both replicates (recomputed)
erlotinib = compound: C#Cc1cccc(Nc2ncnc3cc(OCCOC)c(OCCOC)cc23)c1 [erlotinib]
Method in brief: (§1)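 The values are log-two fold changes in thermal stability compared with solvent controls and come from duplicates. They were obtained by TMTpro 16plex LC-MS/MS, with channel sums equalised, on the supernatant after 21,000xg for 90 min. That supernatant came from crude K562 extract at 1 mg/mL protein treated with 10 μM compound for 30 min, heated for 3 min across 48°C-58°C, pooled and brought to 0.5% NP-40 at 4°C.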

[1] = compound: C/C(=N\NC(=O)C1=CC(=CC=C1)S(=O)(=O)N2CCOCC2)/C3=C(C=CC(=C3)Cl)O
Method in brief: as §1

[2] = compound: C1=CC(=CC=C1C2=NC3=C(N2)C=C(C=C3)C(=O)N)OC4=CC=C(C=C4)Cl
Method in brief: as §1

[3] = compound: C1=CC2=C(C=CC(=C2)/C=C\3/C(=O)NC(=NCC4=CC=CS4)S3)N=C1
Method in brief: as §1

[4] = compound: C1=CC2=NC=CN=C2C=C1/C=C/3\C(=O)NC(=O)S3
Method in brief: as §1

[5] = compound: C1=CC=C(C=C1)C2=NC(=C(N2)C3=CC=NC=C3)C4=CC(=C(C=C4)Cl)O
Method in brief: as §1

[6] = compound: C1=CC=C2C(=C1)C3=NNC4=CC=CC(=C43)C2=O
Method in brief: as §1

[7] = compound: C1CCN(C1)C(=O)NC2=CC=CC(=C2)NC3=NC=C(C(=N3)NCCC4=CN=CN4)Br
Method in brief: as §1

[8] = compound: C1CN(CCC1(CC2=CC=C(C=C2)Cl)N)C3=NC=NC4=C3C=CN4
Method in brief: as §1

IRAK-1-4 Inhibitor I = compound: C1COCCN1CCN2C3=CC=CC=C3N=C2NC(=O)C4=CC(=CC=C4)[N+](=O)[O-] [IRAK-1-4 Inhibitor I]
Method in brief: as §1

Measured: log2 fold change

CAMKK1 isoform 2 (UniProt Q8N5S9)
inactive: erlotinib -0.037 | [1] 0.042 | [2] -0.003 | [3] -0.085 | [4] 0.043 | [5] -0.01 | [6] 0.042 | [7] -0.076 | [8] -0.069 | IRAK-1-4 Inhibitor I 0.001

C7orf25 isoform 2 (UniProt Q9BPX7)
inactive: erlotinib 0.06 | [1] 0.203 | [2] 0.101 | [3] -0.012 | [4] 0.062 | [5] -0.002 | [6] -0.306 | [7] 0.005 | [8] 0.138 | IRAK-1-4 Inhibitor I 0.024

CA8 (UniProt P35219)
inactive: erlotinib -0.003 | [1] 0.003 | [2] -0.015 | [3] -0.001 | [4] 0.022 | [5] 0.014 | [6] -0.052 | [7] 0.005 | [8] 0.026 | IRAK-1-4 Inhibitor I 0.031

Pulled one by one from above, two records:
C7orf25 isoform 2 (UniProt Q9BPX7)
inactive: erlotinib 0.06 | [1] 0.203 | [2] 0.101 | [3] -0.012 | [4] 0.062 | [5] -0.002 | [6] -0.306 | [7] 0.005 | [8] 0.138 | IRAK-1-4 Inhibitor I 0.024

CAMKK1 isoform 2 (UniProt Q8N5S9)
inactive: erlotinib -0.037 | [1] 0.042 | [2] -0.003 | [3] -0.085 | [4] 0.043 | [5] -0.01 | [6] 0.042 | [7] -0.076 | [8] -0.069 | IRAK-1-4 Inhibitor I 0.001

(listing goes on)

BTRC (UniProt Q9Y297)
inactive: erlotinib 0.002 | [1] 0.085 | [2] -0.078 | [3] 0.001 | [4] 0 | [5] -0.007 | [6] 0.029 | [7] -0.138 | [8] -0.028 | IRAK-1-4 Inhibitor I 0.018

CALR (UniProt P27797)
inactive: erlotinib -0.005 | [1] -0.002 | [2] 0.013 | [3] -0.001 | [4] 0.006 | [5] 0 | [6] -0.006 | [7] 0.027 | [8] 0.002 | IRAK-1-4 Inhibitor I 0.003

C1D (UniProt Q13901)
inactive: erlotinib 0.011 | [1] -0.069 | [2] 0 | [3] 0.076 | [4] -0.039 | [5] 0.03 | [6] -0.029 | [7] 0.01 | [8] 0.035 | IRAK-1-4 Inhibitor I -0.013

C1orf122 (UniProt Q6ZSJ8)
inactive: erlotinib 0.038 | [1] -0.039 | [2] 0 | [3] 0.06 | [4] -0.149 | [5] 0.019 | [6] -0.063 | [7] 0.079 | [8] 0.062 | IRAK-1-4 Inhibitor I 0.01

CAND2 (UniProt O75155)
inactive: erlotinib 0.026 | [1] -0.003 | [2] 0.057 | [3] -0.008 | [4] 0.004 | [5] -0.004 | [6] -0.067 | [7] -0.025 | [8] 0.025 | IRAK-1-4 Inhibitor I 0.005

C3 (UniProt P01024)
inactive: erlotinib 0.016 | [1] -0.031 | [2] 0 | [3] 0.004 | [4] -0.036 | [5] 0.151 | [6] -0.061 | [7] -0.042 | [8] 0.01 | IRAK-1-4 Inhibitor I -0.014

CAMK2G isoform 8 (UniProt Q13555)
inactive: erlotinib 0.009 | [1] -0.193 | [2] 0.027 | [3] -0.094 | [4] 0.018 | [5] -0.027 | [6] 0.116 | [7] 0.026 | [8] 0.044 | IRAK-1-4 Inhibitor I 0.036

C9orf78 (UniProt Q9NZ63)
inactive: erlotinib -0.04 | [1] -0.031 | [2] 0.016 | [3] 0.017 | [4] -0.026 | [5] 0.025 | [6] -0.006 | [7] 0.002 | [8] 0 | IRAK-1-4 Inhibitor I -0.067

CAPZB (UniProt P47756)
inactive: erlotinib -0.015 | [1] -0.014 | [2] 0.01 | [3] -0.007 | [4] -0.014 | [5] -0.025 | [6] 0.022 | [7] 0.008 | [8] 0.012 | IRAK-1-4 Inhibitor I -0.028

CACNA1C isoform 2 (UniProt Q13936)
inactive: erlotinib -0.035 | [2] 0.02

C9orf16 (UniProt Q9BUW7)
inactive: erlotinib 0.012 | [1] -0.002 | [2] -0.031 | [3] 0.062 | [5] -0.007 | [6] 0.047 | [7] -0.043 | [8] -0.005 | IRAK-1-4 Inhibitor I -0.023

C17orf80 (UniProt Q9BSJ5)
inactive: erlotinib -0.115 | [1] 0.265 | [2] 0.064 | [3] -0.027 | [6] -0.052

C19orf54 (UniProt Q5BKX5)
inactive: erlotinib -0.012 | [1] 0.042 | [2] 0.035 | [3] -0.025 | [4] 0.019 | [5] -0.004 | [6] 0.022 | [7] -0.012 | [8] -0.012 | IRAK-1-4 Inhibitor I 0.054

C15orf39 (UniProt Q6ZRI6)
inactive: erlotinib -0.029 | [2] 0.026 | [4] -0.031 | [5] 0.052 | [7] 0.019 | [8] -0.009 | IRAK-1-4 Inhibitor I 0.034

C5orf34 (UniProt Q96MH7)
inactive: erlotinib 0.033 | [1] 0.304 | [2] -0.055 | [3] -0.144 | [6] -0.283 | [7] -0.232 | [8] -0.232

C19orf25 (UniProt Q9UFG5)
inactive: erlotinib 0.076 | [1] -0.05 | [2] 0.02 | [3] 0.073 | [4] -0.156 | [5] 0.034 | [6] -0.045 | IRAK-1-4 Inhibitor I -0.006

CAP1 (UniProt Q5T0R8)
inactive: erlotinib 0.045 | [2] 0.144

C12orf57 (UniProt Q99622)
inactive: erlotinib 0.012 | [1] -0.39 | [2] 0.159 | [3] -0.062 | [6] 0.021

C17orf53 (UniProt Q8N3J3)
inactive: erlotinib -0.102 | [2] 0.094

C3orf33 (UniProt Q6P1S2)
inactive: erlotinib 0.195 | [1] -0.205 | [2] 0.209 | [3] -0.124 | [4] 0.068 | [5] 0.032 | [6] 0.123 | IRAK-1-4 Inhibitor I -0.281

C11orf74 (UniProt Q86VG3)
inactive: erlotinib -0.182 | [1] 0.116 | [2] 0.121 | [3] -0.182 | [5] 0.12 | [6] -0.258 | [7] 0.008 | [8] -0.125 | IRAK-1-4 Inhibitor I -0.018

C1orf167 isoform 2 (UniProt Q5SNV9)
inactive: erlotinib 0.084 | [1] 0.131 | [2] 0.003 | [3] 0.023 | [4] -0.122 | [5] 0.011 | [6] 0.035 | IRAK-1-4 Inhibitor I 0.015

CA6 (UniProt P23280)
inactive: erlotinib -1.11 | [2] 0.227

C1GALT1 (UniProt Q9NS00)
inactive: erlotinib -0.1 | [1] 0.006 | [2] -0.068 | [3] 0.039 | [5] -0.004 | [6] -0.069 | IRAK-1-4 Inhibitor I -0.043

CAND1 (UniProt F5H6I6)
inactive: erlotinib 0.037 | [2] 0.061 | [4] -0.003 | [5] 0.071 | [7] -0.078 | [8] 0.122 | IRAK-1-4 Inhibitor I 0.015

CACUL1 (UniProt Q86Y37)
inactive: erlotinib 0.232 | [1] -0.048 | [2] 0.087 | [3] 0.044 | [5] 0.027 | [6] 0.045 | [7] 0.042 | [8] 0.023 | IRAK-1-4 Inhibitor I 0.016

CAB39L (UniProt Q9H9S4)
inactive: erlotinib 0.021 | [1] -0.197 | [2] -0.01 | [3] 0 | [4] -0.005 | [5] 0.069 | [6] -0.009 | IRAK-1-4 Inhibitor I 0.027

CAMSAP2 (UniProt Q08AD1)
inactive: erlotinib 0.112 | [1] 0.032 | [2] 0.306 | [3] 0.063 | [5] -0.094 | [6] -0.161 | [7] -0.008 | [8] -0.018 | IRAK-1-4 Inhibitor I -0.055

C6orf120 (UniProt Q7Z4R8)
inactive: erlotinib 0.043 | [2] -0.014 | [4] 0.008

CAPNS1 (UniProt K7ES78)
inactive: erlotinib 0.193 | [1] -0.23 | [2] 0.019 | [3] -0.275 | [5] -0.048 | [6] 0.047 | IRAK-1-4 Inhibitor I -0.09

C1orf131 isoform 5 (UniProt Q8NDD1)
inactive: erlotinib -0.006 | [1] -0.094 | [2] 0.051 | [3] -0.058 | [5] -0.013 | [6] -0.001 | [7] -0.062 | [8] -0.011 | IRAK-1-4 Inhibitor I 0.067
